Record: PubChem BioAssay AID1259254 (NCATS, 2017)
Shown is a random part of about 59,000 reagents tested. About 1,550 of them (2.6%) were called active. 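G2 share is only a proxy for re-replication; each gene was hit by three separate siRNAs, and active genes were retested.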 The numbers tell different reagents against one gene apart. Further read-outs or replicates are left out here. No sequences are given here. Not given: the amount of reagent.

Purpose: 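Finding genes that stop cells copying their DNA twice in one cycle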 (primary screen)
Cells: human HCT116 colorectal cancer cells
Reagent: single siRNA against human genes
Timing: 3 days
Detection: 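Nuclei stained with Hoechst and imaged; cell-cycle phase assigned by DNA content; G2 share scaled per plate, non-targeting siRNA 0%, GMNN siRNA 100%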
Scale: G2 robust z-score and G2 cells, % of GMNN control: higher = more G2 cells, more excess DNA replication
Hit rule: 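Active siRNAs have a G2 robust z of 5 or more median absolute deviations over the median, which in these data means about 38% or higher of GMNN control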

no.	gene symbol	reagent	G2 robust z-score	G2 cells, % of GMNN control	Call
1	VDAC1	1	1.85	16	inactive
2	VDAC1	2	0.312	5.16	inactive
3	VDAC1	3	-0.539	-0.822	inactive
4	CHRDL2	1	-0.306	0.817	inactive
5	CHRDL2	2	3.32	26.3	inactive
6	CHRDL2	3	-1.37	-6.68	inactive
7	MALT1	1	-1.63	-8.51	inactive
8	MALT1	2	2.73	22.2	inactive
9	MALT1	3	-0.0254	2.79	inactive
10	KIAA1210	1	-0.871	-3.16	inactive
11	KIAA1210	2	0.834	8.84	inactive
12	KIAA1210	3	0.206	4.41	inactive
13	ZNF341	1	0.084	3.56	inactive
14	ZNF341	2	0.302	5.1	inactive
15	ZNF341	3	0.219	4.51	inactive
16	GJB2	1	0.324	5.25	inactive
17	GJB2	2	1.14	11	inactive
18	GJB2	3	-0.629	-1.46	inactive
19	RPGRIP1L	1	0.0633	3.41	inactive
20	RPGRIP1L	2	-0.334	0.618	inactive
21	RPGRIP1L	3	0.935	9.54	inactive
22	MAPRE1	1	0.811	8.67	inactive
23	MAPRE1	2	2.33	19.4	inactive
24	MAPRE1	3	1.59	14.1	inactive
25	UTP4	1	1.23	11.6	inactive
26	UTP4	2	0.594	7.15	inactive
27	UTP4	3	0.223	4.54	inactive
28	THBS2	1	-0.667	-1.73	inactive
29	THBS2	2	1.05	10.3	inactive
30	THBS2	3	1.72	15.1	inactive
31	LINC00851	1	0.196	4.35	inactive
32	LINC00851	2	0.175	4.2	inactive
33	LINC00851	3	1.66	14.7	inactive
34	WDR74	1	3.58	28.2	inactive
35	WDR74	2	0.162	4.1	inactive
36	WDR74	3	1.63	14.5	inactive
37	NDUFAF5	1	1.35	12.4	inactive
38	NDUFAF5	2	-0.247	1.23	inactive
39	NDUFAF5	3	1.3	12.1	inactive
40	LINC01704	1	0.479	6.34	inactive
41	LINC01704	2	0.643	7.49	inactive
42	LINC01704	3	-0.156	1.87	inactive
43	KCNMB3	1	-1.04	-4.32	inactive
44	KCNMB3	2	-0.613	-1.34	inactive
45	KCNMB3	3	-0.417	0.0349	inactive
46	ADGRF5	1	-0.595	-1.22	inactive
47	ADGRF5	2	-0.997	-4.05	inactive
48	ADGRF5	3	0.626	7.37	inactive
49	EIF4A2	1	5.66	42.8	active
50	EIF4A2	2	-0.666	-1.72	inactive
51	EIF4A2	3	-0.4	0.151	inactive
52	DRAM1	1	0.403	5.8	inactive
53	DRAM1	2	0.652	7.56	inactive
54	DRAM1	3	1.51	13.6	inactive
55	CSGALNACT2	1	-0.0244	2.8	inactive
56	CSGALNACT2	2	-0.6	-1.26	inactive
57	CSGALNACT2	3	0.155	4.06	inactive
58	CLCNKB	1	5.53	41.9	active
59	CLCNKB	2	0.287	4.99	inactive
60	CLCNKB	3	-0.133	2.03	inactive
61	AMER1	1	-0.652	-1.62	inactive
62	AMER1	2	-0.115	2.16	inactive
63	AMER1	3	0.664	7.64	inactive
64	TLR8	1	3.35	26.5	inactive
65	TLR8	2	-0.318	0.729	inactive
66	TLR8	3	-0.935	-3.61	inactive
67	FYTTD1	1	1.23	11.6	inactive
68	FYTTD1	2	-0.388	0.238	inactive
69	FYTTD1	3	-0.235	1.32	inactive

Copied from the entries so far (6 entries):
no.	gene symbol	reagent	G2 robust z-score	G2 cells, % of GMNN control	Call
4	CHRDL2	1	-0.306	0.817	inactive
5	CHRDL2	2	3.32	26.3	inactive
6	CHRDL2	3	-1.37	-6.68	inactive
7	MALT1	1	-1.63	-8.51	inactive
8	MALT1	2	2.73	22.2	inactive
9	MALT1	3	-0.0254	2.79	inactive
